PubChem BioAssay AID504648 (National Center for Advancing Translational Sciences (NCATS), 2011)
Among all 390,000 compounds or so, about 610 (0.16%) were called active. The inconclusive results got no clear call from the source; some entries with a clear call stand among them for comparison. Calls follow the shape of the dose curve; as a rule, active = well fitted inhibition curve with a large enough effect; inconclusive = small, poorly fitted or top-dose-only effect, or effect the other way, or another doubt; inactive = no such curve, though single readings can be large or run the other way. Potencies beside an inconclusive call are fits to weak or partial responses and may not hold up.

Experiment: Nrf2 qHTS screen for inhibitors: counterscreen for cytotoxicity
Details: A549 ARE-Fluc cells, CellTiter-Fluor viability, 18-24 h; series mostly up to 46 µM
How it was run: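 Cytotoxicity counterscreen: CellTiter-Fluor fluorescence was measured in A549 ARE_Fluc cells after 18-24 h of compound exposure in a concentration series. The subsequent BugLite luminescent read reports ARE-luciferase activity.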
Potency is read from the fitted curve at half-maximal effect.

SMILES	Potency
COc1ccc(CSc2nc3ccncc3n2Cc2nc(-c3ccc(OC)c(OC)c3)oc2C)cc1	inconclusive: 6.51 µM [falling, full curve, poor fit]
COc1ccc(S(=O)(=O)c2cn(CC(=O)Nc3ccccc3)c3ccc(Cl)cc3c2=O)cc1	inactive
CCC(=O)N1CCN(c2ccc(NC(=O)c3ccc(Br)o3)cc2)CC1	inconclusive: 10.3 µM [activator, partial curve, poor fit]
COc1ccc(CCNC(=O)c2c3c(nc4ccccc24)C(=O)N(C2CCCCC2)C3)cc1OC	inconclusive: 29.1 µM [falling, partial curve, poor fit]
CC1CCC(C(C)C)C(OC(=O)CSc2nnc(N)s2)C1 (configuration not stated)	inactive
O=C(Cn1cnc([N+](=O)[O-])c1)Nc1cc(Oc2ccc(Cl)cc2Cl)cc([N+](=O)[O-])c1	inconclusive: 29.1 µM [falling, single point]
COc1ccc(NC(=O)CC(=O)Nc2ccc(OC)cc2OC)c(OC)c1	inconclusive: 6.51 µM [falling, partial curve, poor fit]
Cc1oc(-c2ccccc2F)nc1Cn1c(SCc2cccc(Cl)c2)nc2ccncc21	inconclusive: 20.6 µM [falling, single point]
COc1cc2c(cc1OC)CN(C(=O)c1cccc(S(=O)(=O)N3CCc4ccccc43)c1)CC2	inconclusive: 23.1 µM [falling, partial curve, poor fit]
Nc1c(N(CCC2=CCCCC2)C(=O)COc2ccc(F)cc2Cl)c(=O)[nH]c(=O)n1Cc1ccccc1	inconclusive: 23.1 µM [falling, single point]
Cc1ccc(S(=O)(=O)c2c(C)nn(C(C)(C)C)c2OC(=O)c2ccc(Br)o2)cc1	inconclusive: 20.6 µM [falling, single point]
Cc1cc(NC(=O)CN(C)S(=O)(=O)c2ccc(-c3ccc(=O)[nH]n3)s2)ccc1Br	inconclusive: 18.4 µM [falling, partial curve, poor fit]
CC(C)C(=O)N1CCN(c2ccc([N+](=O)[O-])c(NC(C)c3ccccc3)c2)CC1 (configuration not stated)	inconclusive: 25.9 µM [falling, single point]
O=C(Cc1ccccc1)c1c[nH]c(C(=O)NCc2ccncc2)c1	inconclusive: 14.6 µM [falling, partial curve]
CCN(Cc1ccc(O)cc1)CC1CCCN(CCc2cccc(F)c2)C1 (configuration not stated)	inconclusive: 32.6 µM [falling, partial curve, poor fit]
COC(=O)c1ccccc1NC(=O)Cc1nc(-c2ccc(OC)cc2)no1	inactive
Cc1ccc(-c2nnc(NC3CCCCC3)c3ccccc23)cc1S(=O)(=O)N1CCN(C)CC1	inconclusive: 29.1 µM [falling, single point]
CCCN(CCC)C(=O)CSc1nc2ccccc2c(=O)n1C1CCCC1	inconclusive: 29.1 µM [falling, single point]
CC1CCC(C(C)C)C(OC(=O)COC(=O)c2ccc(=O)[nH]c2)C1 (configuration not stated)	inactive
O=c1[nH]n2c(=O)c3c([nH]c2c1N=Nc1ccccc1)CCC3	inconclusive: 23.1 µM [falling, single point]
O=C(Nc1ccc(F)cc1)c1ncn(-c2ccccc2)n1	inactive
c1ccc2[nH]c3cc4ncnc4cc3nc2c1	inconclusive: 9.2 µM [falling, partial curve]
COc1ccc(C2CC(=O)N(Cc3cccc(C)c3)c3c2c(C)nn3-c2nc(C)cc(C)n2)c(OC)c1 (configuration not stated)	inactive

SMILES	Potency
COc1ccc(C(=O)O/N=C(/c2ccccc2)c2ccncc2)cc1	inactive
COc1ccc(-c2nc(CN3CCN(c4ccccc4OC)CC3)c(C)o2)cc1	inconclusive: 29.1 µM [falling, single point]
C=C(C)n1c(=O)n(Cc2ccccc2C)c2ccccc21	inactive
COc1ccc(/C=C2\SC(=S)N(CCCC(=O)Nc3ccc(O)cc3)C2=O)cc1	inconclusive: 18.4 µM [falling, partial curve, poor fit]
COc1ccc(/C=C/C(=O)O)cc1S(=O)(=O)NCC1CCCO1 (configuration not stated)	inconclusive: 29.1 µM [activator, single point]
CC(Nc1ncnc2c1cnn2-c1cccc(Cl)c1)c1ccccc1 (configuration not stated)	inactive
N#CC(c1ccc(O)cc1)N1CCOCC1 (configuration not stated)	inconclusive: 20.6 µM [activator, single point]
O=C(O)C1C2C=CC(O2)C1C(=O)NCc1ccc(Cl)cc1 (configuration not stated)	inactive
Cc1ccc(NC(=O)N(Cc2c[nH]c3ccccc23)C2CCCCCC2)cc1C	inactive
COC(=O)c1ccc(NC(=S)N2CCN(Cc3ccc(Cl)cc3)CC2)cc1	inconclusive: 23.1 µM [falling, single point]
CCOc1ccc(C2=C(C(C)=O)Sc3nnc(C)n3N2C(C)=O)cc1	inconclusive: 23.1 µM [falling, partial curve, poor fit]
O=C1CNC(=S)N1c1nc(-c2ccccc2)cs1	inactive
Cc1ccc(C(=O)NNC(=S)NC(=O)c2ccccc2)cc1	inconclusive: 32.6 µM [falling, partial curve, poor fit]
O=S(=O)(c1ccc2c(c1)C(=NO)c1cc(S(=O)(=O)N3CCCCC3)ccc1-2)N1CCCCC1	inconclusive: 25.9 µM [falling, single point]
COc1ccc(-c2n(Cc3ccccc3)c3ccccc3[n+]2Cc2ccccc2)cc1	inconclusive: 14.6 µM [falling, partial curve, poor fit]
O=C(Nc1ccc2oc(-c3ccc4ccccc4c3)nc2c1)c1cccc(Cl)c1Cl	inactive
CSc1ccc(CCNC(=O)CN2C(=O)COc3ccc(S(=O)(=O)N4CCCC4)cc32)cc1	inconclusive: 29.1 µM [falling, single point]
Cc1cccc(N=C2NN=C(c3c(C)[nH]c4ccccc34)CS2)c1	inconclusive: 18.4 µM [falling, single point]
COC(=O)NNC(=O)c1cccc(C)c1	inconclusive: 18.4 µM [activator, partial curve, poor fit]
COc1cc(Cl)c(S(=O)(=O)N2CCN(c3c(C)cccc3C)CC2)cc1Cl	inactive
Clc1ccc(CSc2nnc(Cn3cnc4ccccc43)o2)cc1	inactive
CC(Oc1cccc(Cl)c1)C(=O)Nc1ccc([N+](=O)[O-])cn1 (configuration not stated)	inconclusive: 20.6 µM [activator, partial curve, poor fit]
CN1CCN(C(=O)/C=C/c2ccc([N+](=O)[O-])o2)CC1	inconclusive: 18.4 µM [falling, single point]

SMILES	Potency
Cc1ccc2sc(N(CCCN(C)C)C(=O)c3ccc(S(=O)(=O)N4CCc5ccccc5C4)cc3)nc2c1C	inconclusive: 29.1 µM [falling, single point]
CC(=O)Nc1cccc(C(=O)/C=C/c2ccc(Br)cc2)c1	inconclusive: 18.4 µM [falling, single point]
CCOC(=O)CN1C(=O)S/C(=C/c2cccc([N+](=O)[O-])c2O)C1=O	inconclusive: 29.1 µM [falling, single point]
COc1ccc(-n2nc(C(=O)NCC(=O)Nc3cc(OC)c(OC)c(OC)c3)c3ccccc3c2=O)cc1Cl	inconclusive: 3.66 µM [falling, full curve]
O=C(CSc1nc2c(c(C(F)(F)F)n1)CCc1ccccc1-2)NCc1ccco1	inconclusive: 32.6 µM [falling, partial curve, poor fit]
CCc1ccc(-c2nc3cc(NC(=O)c4ccc(F)cc4)ccc3o2)cc1	inactive
CCC(=O)c1ccc(OCC(O)CN(CCc2ccccc2)Cc2ccccc2)cc1 (configuration not stated)	inconclusive: 29.1 µM [falling, single point]
COc1ccccc1CNC(=O)CSc1ncc(C(=O)Nc2ccccc2)c(=O)n1C	inactive
Cc1ccnc(NC(=O)c2ccc(NS(=O)(=O)/C=C/c3ccccc3)cc2)c1	inactive
CCOc1ccc(-c2nnn(CC(=O)NCc3ccccc3)n2)cc1	inconclusive: 20.6 µM [falling, single point]
Cc1nc(Sc2nnnn2C)c2c3c(sc2n1)CCC3	inconclusive: 4.61 µM [falling, full curve]
CC1=NN(c2ccccc2)C(=O)C1N=Nc1ccc(N)cc1 (configuration not stated)	inconclusive: 4.61 µM [falling, partial curve]
CC(C)c1nc(N2CCOCC2)c(C#N)c2c1CCC2	inactive
Cc1ccc(-c2nnc3c(C(F)(F)F)nc4ccccc4n23)cc1	inconclusive: 29.1 µM [falling, single point]
Cc1cccc(CCNC(=O)CCc2c(C)nc3c(-c4ccc(F)cc4)c(C)nn3c2C)c1	inactive
CN(C)N1C(N)=C(C#N)C(c2cccc3ccccc23)C2=C1CC(c1ccccc1)CC2=O (configuration not stated)	inconclusive: 20.6 µM [falling, partial curve, poor fit]
COC(=O)c1cnn(C(=O)c2ccccc2Br)c1N	inconclusive: 0.651 µM [falling, partial curve]
CCC(Sc1nc2n[nH]c(C)c2c(=N)n1-c1ccc(Br)cc1)C(=O)N(CC)CC (configuration not stated)	inconclusive: 18.4 µM [falling, single point]
COc1cc2nc(C3CCC3)nc(N3CCN(c4ccccc4OC)CC3)c2cc1OC	inconclusive: 29.1 µM [falling, single point]
CCSc1nnc(-c2cccc(S(=O)(=O)N(CC)CC)c2)n1Cc1ccccc1	inactive
OCCCCNCc1ccc(OCc2ccc(Cl)cc2Cl)cc1	inconclusive: 29.1 µM [falling, single point]
